Experimental data taken from publication doi:10.1101/2023.05.30.542914 (bioRxiv, 2023).
No constants are given. Whether binding was seen depends on the method and setting. Binding seen in cells or lysates may run through a third protein. Some entries that bind do so weakly or less than the wild type. Tags and fused reporters may be left off the sequences shown.

T1: Wnt7a-HA, full length (Wnt7a-FL) (human) (UniProt O00755)
T1 sequence: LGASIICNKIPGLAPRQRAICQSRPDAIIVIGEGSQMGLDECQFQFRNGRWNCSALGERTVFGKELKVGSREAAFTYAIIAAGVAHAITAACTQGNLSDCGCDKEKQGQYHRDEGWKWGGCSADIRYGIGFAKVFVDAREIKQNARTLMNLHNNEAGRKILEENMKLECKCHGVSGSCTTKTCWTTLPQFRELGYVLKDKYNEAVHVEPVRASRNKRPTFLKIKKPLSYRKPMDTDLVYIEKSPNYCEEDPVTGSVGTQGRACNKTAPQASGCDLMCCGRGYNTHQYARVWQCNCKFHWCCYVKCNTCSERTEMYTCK

T2: myc-tagged Wnt7a-BirA (UniProt O00755)
T2 sequence: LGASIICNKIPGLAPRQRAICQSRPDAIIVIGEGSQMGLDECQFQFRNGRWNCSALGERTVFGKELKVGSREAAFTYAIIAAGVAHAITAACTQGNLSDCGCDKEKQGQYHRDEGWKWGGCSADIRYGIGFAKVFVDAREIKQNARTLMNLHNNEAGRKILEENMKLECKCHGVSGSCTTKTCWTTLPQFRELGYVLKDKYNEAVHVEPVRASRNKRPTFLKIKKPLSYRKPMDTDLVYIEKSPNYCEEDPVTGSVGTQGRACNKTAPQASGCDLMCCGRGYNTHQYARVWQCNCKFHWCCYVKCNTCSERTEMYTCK

T3: COPB2 (human (endogenous in HEK293T)) (UniProt P35606)
T3 sequence: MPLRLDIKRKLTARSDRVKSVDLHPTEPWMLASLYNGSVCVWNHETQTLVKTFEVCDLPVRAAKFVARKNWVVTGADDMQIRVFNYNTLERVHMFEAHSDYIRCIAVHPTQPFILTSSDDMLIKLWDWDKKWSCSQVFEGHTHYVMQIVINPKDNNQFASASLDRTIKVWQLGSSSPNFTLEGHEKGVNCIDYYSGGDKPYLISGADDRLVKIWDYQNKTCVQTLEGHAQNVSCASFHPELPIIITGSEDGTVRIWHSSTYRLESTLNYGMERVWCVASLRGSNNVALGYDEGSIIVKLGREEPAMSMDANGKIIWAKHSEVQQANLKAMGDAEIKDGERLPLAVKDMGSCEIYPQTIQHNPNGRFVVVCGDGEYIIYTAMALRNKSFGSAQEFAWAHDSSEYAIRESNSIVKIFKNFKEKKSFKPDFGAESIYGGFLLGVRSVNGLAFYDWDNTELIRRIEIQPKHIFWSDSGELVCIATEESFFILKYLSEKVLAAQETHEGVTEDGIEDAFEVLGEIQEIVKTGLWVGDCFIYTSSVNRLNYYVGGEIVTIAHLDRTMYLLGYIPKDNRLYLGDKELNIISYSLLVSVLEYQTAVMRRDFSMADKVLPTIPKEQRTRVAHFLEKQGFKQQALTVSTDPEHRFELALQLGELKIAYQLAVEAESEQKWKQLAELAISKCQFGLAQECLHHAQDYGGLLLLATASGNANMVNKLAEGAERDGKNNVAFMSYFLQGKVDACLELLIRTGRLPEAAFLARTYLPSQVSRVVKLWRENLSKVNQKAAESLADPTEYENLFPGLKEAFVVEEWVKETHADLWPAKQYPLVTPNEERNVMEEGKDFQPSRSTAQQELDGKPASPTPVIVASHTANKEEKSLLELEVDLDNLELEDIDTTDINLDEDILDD

B1: COPB2 (protein, UniProt P35606 1-906)
chain: MPLRLDIKRKLTARSDRVKSVDLHPTEPWMLASLYNGSVCVWNHETQTLVKTFEVCDLPVRAAKFVARKNWVVTGADDMQIRVFNYNTLERVHMFEAHSDYIRCIAVHPTQPFILTSSDDMLIKLWDWDKKWSCSQVFEGHTHYVMQIVINPKDNNQFASASLDRTIKVWQLGSSSPNFTLEGHEKGVNCIDYYSGGDKPYLISGADDRLVKIWDYQNKTCVQTLEGHAQNVSCASFHPELPIIITGSEDGTVRIWHSSTYRLESTLNYGMERVWCVASLRGSNNVALGYDEGSIIVKLGREEPAMSMDANGKIIWAKHSEVQQANLKAMGDAEIKDGERLPLAVKDMGSCEIYPQTIQHNPNGRFVVVCGDGEYIIYTAMALRNKSFGSAQEFAWAHDSSEYAIRESNSIVKIFKNFKEKKSFKPDFGAESIYGGFLLGVRSVNGLAFYDWDNTELIRRIEIQPKHIFWSDSGELVCIATEESFFILKYLSEKVLAAQETHEGVTEDGIEDAFEVLGEIQEIVKTGLWVGDCFIYTSSVNRLNYYVGGEIVTIAHLDRTMYLLGYIPKDNRLYLGDKELNIISYSLLVSVLEYQTAVMRRDFSMADKVLPTIPKEQRTRVAHFLEKQGFKQQALTVSTDPEHRFELALQLGELKIAYQLAVEAESEQKWKQLAELAISKCQFGLAQECLHHAQDYGGLLLLATASGNANMVNKLAEGAERDGKNNVAFMSYFLQGKVDACLELLIRTGRLPEAAFLARTYLPSQVSRVVKLWRENLSKVNQKAAESLADPTEYENLFPGLKEAFVVEEWVKETHADLWPAKQYPLVTPNEERNVMEEGKDFQPSRSTAQQELDGKPASPTPVIVASHTANKEEKSLLELEVDLDNLELEDIDTTDINLDEDILDD
B2: COPA (mouse) (protein, UniProt Q8CIE6)
chain: MLTKFETKSARVKGLSFHPKRPWILTSLHNGVIQLWDYRMCTLIDKFDEHDGPVRGIDFHKQQPLFVSGGDDYKIKVWNYKLRRCLFTLLGHLDYIRTTFFHHEYPWILSASDDQTIRVWNWQSRTCVCVLTGHNHYVMCAQFHPSEDLVVSASLDQTVRVWDISGLRKKNLSPGAVESDVRGITGVDLFGTTDAVVKHVLEGHDRGVNWAAFHPTMPLIVSGADDRQVKIWRMNESKAWEVDTCRGHYNNVSCAVFHPRQELILSNSEDKSIRVWDMSKRTGVQTFRRDHDRFWVLAAHPNLNLFAAGHDGGMIVFKLERERPAYAVHGNMLHYVKDRFLRQLDFNSSKDVAVMQLRSGSKFPVFNMSYNPAENAVLLCTRASNLENSTYDLYTIPKDADSQNPDAPEGKRSSGLTAVWVARNRFAVLDRMHSLLIKNLKNEITKKIQVPNCDEIFYAGTGNLLLRDADSITLFDVQQKRTLASVKISKVKYVIWSADMSHVALLAKHAIVICNRKLDALCNIHENIRVKSGAWDESGVFIYTTSNHIKYAVTTGDHGIIRTLDLPIYVTRVKGNNVYCLDRECRPRVLTIDPTEFKFKLALINRKYDEVLHMVRNAKLVGQSIIAYLQKKGYPEVALHFVKDEKTRFSLALECGNIEIALEAAKALDDKNCWEKLGEVALLQGNHQIVEMCYQRTKNFDKLSFLYLITGNLEKLRKMMKIAEIRKDMSGHYQNALYLGDVSERVRILKNCGQKSLAYLSAATHGLDEEAESLKETFDPEKETIPDIDPNAKLLQPPAPIMPLDTNWPLLTVSKGFFEGSIASKGKGGALAADIDIDTVGTEGWGEDAELQLDEDGFVEAPEGLGEDVLGKGQEEGGGWDVEEDLELPPELDVPSGVSGSAEDGFFVPPTKGTSPTQIWCNNSQLPVDHILAGSFETAMRLLHDQVGVIQFGPYKQLFLQTYARGRTTYQALPCLPSMYSYPNRNWKDAGLKNGVPAVGLKLNDLIQRLQLCYQLTTVGKFEEAVEKFRSILLSVPLLVVDNKQEIAEAQQLITICREYIVGLCMEIERKKLPKETLDQQKRICEMAAYFTHSNLQPVHMILVLRTALNLFFKLKNFKTAATFARRLLELGPKPEVAQQTRKILSACEKNPTDACQLNYDMHNPFDICAASYRPIYRGKPVEKCPLSGACYSPEFKGQICRVTTVTEIGKDVIGLRISPLQFR
B3: Wnt7a-HA, full length (Wnt7a-FL) (protein, UniProt O00755 32-349)
chain: LGASIICNKIPGLAPRQRAICQSRPDAIIVIGEGSQMGLDECQFQFRNGRWNCSALGERTVFGKELKVGSREAAFTYAIIAAGVAHAITAACTQGNLSDCGCDKEKQGQYHRDEGWKWGGCSADIRYGIGFAKVFVDAREIKQNARTLMNLHNNEAGRKILEENMKLECKCHGVSGSCTTKTCWTTLPQFRELGYVLKDKYNEAVHVEPVRASRNKRPTFLKIKKPLSYRKPMDTDLVYIEKSPNYCEEDPVTGSVGTQGRACNKTAPQASGCDLMCCGRGYNTHQYARVWQCNCKFHWCCYVKCNTCSERTEMYTCK
B4: COPB2 (mouse) (protein, UniProt O55029 1-905)
chain: MPLRLDIKRKLTARSDRVKSVDLHPTEPWMLASLYNGSVCVWNHETQTLVKTFEVCDLPVRAAKFVARKNWVVTGADDMQIRVFNYNTLERVHMFEAHSDYIRCIAVHPTQPFILTSSDDMLIKLWDWDKKWSCSQVFEGHTHYVMQIVINPKDNNQFASASLDRTIKVWQLGSSSPNFTLEGHEKGVNCIDYYSGGDKPYLISGADDRLVKIWDYQNKTCVQTLEGHAQNVSCASFHPELPIIITGSEDGTVRIWHSSTYRLESTLNYGMERVWCVASLRGSNNVALGYDEGSIIVKLGREEPAMSMDANGKIIWAKHSEVQQANLKAMGDTEIKDGERLPLAVKDMGSCEIYPQTIQHNPNGRFVVVCGDGEYIIYTAMALRNKSFGSAQEFAWAHDSSEYAIRESNSIVKIFKNFKEKKSFKPDFGAESIYGGFLLGVRSVNGLAFYDWENTELIRRIEIQPKHIFWSDSGELVCIATEESFFILKYLSEKVLAAQETHEGVTEDGIEDAFEVLGEIQEIVKTGLWVGDCFIYTSSVNRLNYYVGGEIVTIAHLDRTMYLLGYIPKDNRLYLGDKELNIVSYSLLVSVLEYQTAVMRRDFSMADKVLPTIPKEQRTRVAHFLEKQGFKQQALTVSTDPEHRFELALQLGELKIAYQLAVEAESEQKWKQLAELAISKCQFSLAQECLHHAQDYGGLLLLATASGNASMVNKLAEGAERDGKNNVAFMSYFLQGKLDACLELLIRTGRLPEAAFLARTYLPSQVSRVVKLWRENLSKVNQKAAESLADPTEYENLFPGLKEAFVVEEWVKETHADLWPAKQYPLVTPNEERNVMEEAKGFQPSRPTAQQEPDGKPASSPVIMASQTTHKEEKSLLELEVDLDNLELEDIDTTDINLDEDILDD

Experiments:
[1] = biological target: T1, Wnt7a-HA, full length (Wnt7a-FL) (human); test: co-IP
myc-tagged Wnt7a-BirA = biological target: T2, myc-tagged Wnt7a-BirA; test: proximity ligation
[2] = biological target: T3, COPB2 (human (endogenous in HEK293T)); test: co-IP

Binder	binding (myc-tagged Wnt7a-BirA)	also measured
B1		binding [1]: binds
B2	binds	
B3		binding [2]: binds
B4	binds	
